A short description of this experiment: qHTS Assay for Lipid Storage Modulators in Drosophila S3 Cells.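 For cell number change: cells counted by Cell Tracker Red CMTPX staining in the red channel.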 The note with it: BODIPY lipid droplet fluorescence, 18-24 h; for cell number change: measured here: cell count max response, cells fed with added oleic acid. The essentials: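 Laser-scanning cytometry quantifies lipid droplet accumulation (500–530 nm total intensity; droplet/cell object ratio) in oleic acid-fed (400 uM added) Drosophila S3 cells treated with a concentration series. 20 uM Triacsin C defined 100% inhibition.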
On the technique in general: In qHTS, concentration-response curves come from the screen itself.

[1] abbreviates: measured here: lipid fluorescence (Fed channel) AC50, cells fed with added oleic acid.
Setting [2] is: measured here: cell number channel AC50, cells fed with added oleic acid.

The list shows a part of the results. The main result of the screen is listed elsewhere. These columns were measured beside it and carry no call. Compounds called inactive in the main read-out are mostly missing here. Words in brackets tell the shape of the fitted curve; partial curves, single points and poor fits give uncertain potencies.

For `CC1CN(C(=O)c2ccc(OC3CCN(Cc4ccccn4)CC3)cc2)CCN1C` (stereo not given), the cell number change is -15.3%.

For the compound `COc1ccc(/C=N\n2nnc3ccccc32)cc1`, the cell number change was -7.03%. Moreover, under setting [1], the AC50 (usually the midpoint of the concentration-response curve, whichever way the signal moves) is 1.84 µM [rising, partial curve].

On to `COc1ccccc1NC(=O)CSc1nc(O)cc(=O)n1C`, for which the cell number change came to 10.3%.

`O=C(O)c1cn(-c2ccc(F)cc2)c2cc(Cl)c(F)cc2c1=O`: the cell number change turned out to be 18%. Further, the AC50 under setting [1] is 8.2 µM [rising, partial curve].

Turning to `O=C(NCCc1ccc(C(F)(F)F)cc1)c1ccc(Cl)nc1`, the cell number change was -11.1%. Under setting [1], the AC50 was 0.58 µM [falling, single point].

On to `COc1ccc(C(=O)Nc2ccc(N3CCC(C)CC3)cc2)cc1Br`, for which the cell number change stood at 18%.

For the compound `COC(=O)CNC(c1ccccc1Cl)c1cc(Br)ccc1NC(=O)CCN1CCOCC1` (stereo not given), the cell number change turned out to be 71.3%. The AC50 under setting [2] was 0.411 µM [rising, full curve, poor fit].

With `CC1CC(C)CN(C(=O)/C(=C\c2ccccc2)c2ccccc2)C1` (stereo not given), the cell number change is -28.1%.

In the case of `O=C(NCc1ccccc1)C(c1cccnc1)N(C(=O)c1csnn1)c1ccccc1` (stereo not given), the cell number change was 9.24%. Besides, under setting [1], the AC50 is 20.6 µM [rising, single point].

For the compound `c1coc(CNc2ncnc3ccccc23)c1`, the cell number change was -19.6%. Further, under setting [2], the AC50 is 0.13 µM [falling, full curve, poor fit]. The concentration at half-maximal activity (AC50) under setting [1] was 5.8 µM [falling, partial curve].

Regarding `Cc1ccc(S(=O)(=O)/N=C(\N)c2ccc(F)cc2)cc1`, the cell number change stood at 113%. Moreover, the AC50 under setting [2] was 29.1 µM [rising, single point].

`CCOC(=O)CN1C(=O)C(O)=C(C(C)=O)C1c1ccc(F)cc1` (stereo not given): the cell number change is -12.8%. Under setting [1], the AC50 was 0.092 µM [falling, full curve, poor fit].

Regarding `Oc1c(C(c2ccccn2)N2CCOCC2)ccc2cccnc12` (stereo not given), the cell number change is -23.3%. Besides, the AC50 under setting [1] is 16.4 µM [falling, single point].

On to `CCN(CC)S(=O)(=O)c1ccc(N/N=C(\C)c2ccncc2)c([N+](=O)[O-])c1`, for which the cell number change was -29.5%.

Consider `O=C(Oc1ccc(Br)cc1C(=S)N1CCOCC1)c1ccccc1`, for which the cell number change is -19%. Further, under setting [1], the AC50 was 29.1 µM [falling, partial curve].

Consider `CCCCc1ccc(N/C(N)=N/c2nc(C)cc(C)n2)cc1`, for which the cell number change was -61.6%. In addition, the AC50 under setting [2] was 29.1 µM [falling, single point]. For the same compound, the AC50 under setting [1] is 11.6 µM [falling, partial curve].

Turning to `C/C(N)=C(/C#N)C(=O)COC(=O)c1ccccc1O`, the cell number change came out at 50%. Moreover, under setting [2], the AC50 is 5.8 µM [rising, full curve].

For the compound `CC(c1nnc(SCC(=O)c2c(N)n(C)c(=O)n(C)c2=O)n1-c1ccc(Cl)cc1)N(C)C` (stereo not given), the cell number change is -7.77%. Further, the concentration at half-maximal activity (AC50) under setting [1] is 1.46 µM [rising, partial curve, poor fit].

On to `Cc1nnc(SCC(=O)c2cc(C)n(C3CC3)c2C)s1`, for which the cell number change is -9.43%. Further, the half-maximal activity concentration (AC50) under setting [1] was 6.51 µM [falling, single point].

Regarding `O=C1CC(N2CCOCC2)C(=O)N1c1cc(Cl)cc(Cl)c1` (stereo not given), the cell number change was 0.78%. Further, the AC50 under setting [2] is 0.92 µM [falling, full curve, poor fit].

`N#Cc1cccc(C(c2nnnn2Cc2ccccc2)N2CCCC2)c1` (stereo not given): the cell number change is -1.62%.

Regarding `CC(C)(C)OC(=O)N1CCC(NC(=O)c2[nH]cnc2C(=O)Nc2ccc(Cl)cc2)CC1`, the cell number change was -21%. Under setting [1], the AC50 was 0.00461 µM [rising, full curve, poor fit].

As for `O=C(Cn1c(=O)c2cccn2c2cccnc21)NCCCN1CCN(c2ccc(F)cc2)CC1`, the cell number change was -0.295%.

For `CC(C)OCCCn1c(=NC(=O)c2ccncc2)c(C#N)cc2c(=O)n3ccccc3nc21`, the cell number change is -17%. In addition, under setting [1], the AC50 is 0.651 µM [falling, full curve, poor fit].

For the compound `COc1ccc(NC(=S)NC2CCCCCC2)c(OC)c1`, the cell number change is -3.43%.

Take `COc1ccc(S(=O)(=O)Nc2ccccc2C(=O)OC2CCCN(C)C2)cc1OC` (stereo not given): the cell number change was found to be 35.7%. Further, under setting [2], the AC50 was 2.59 µM [rising, partial curve]. The AC50 under setting [1] was 7.31 µM [rising, partial curve].

As to `COc1ccc(/C=C/C(=O)NC2CCN(Cc3ccccc3)CC2)cc1OC`, the cell number change was -0.435%. Further, the AC50 under setting [1] is 29.1 µM [rising, single point].

Consider `COc1ccc(Nc2nc3ccc(OC)cc3s2)cc1`, for which the cell number change worked out at 40.5%. The AC50 under setting [2] is 1.46 µM [rising, partial curve]. The AC50 under setting [1] is 0.00461 µM [rising, full curve, poor fit].

With `COc1cc(/C=N/NC(=O)CC2(C)OCCCO2)ccc1OCc1ccc(Cl)cc1Cl`, the cell number change was found to be 6.06%. Moreover, the AC50 under setting [1] is 0.00366 µM [rising, full curve, poor fit].

Take `C/C(=N\NC(=O)c1ccc(OC2CCCC2)cc1)c1ccc(O)cc1`: the cell number change turned out to be 15.9%. The AC50 under setting [1] is 6.51 µM [falling, single point].

Regarding `Cc1ccc(/C=C/C(=O)OCC(=O)NC(=O)NCc2ccccc2)cc1`, the cell number change is -33.8%. The AC50 under setting [2] is 29.1 µM [falling, single point]. Besides, the AC50 under setting [1] was 0.651 µM [falling, full curve].

For the compound `Cn1cccc1Cc1nnc(SCC(=O)NCCc2ccccc2)n1C`, the cell number change was -16.7%. Moreover, under setting [1], the AC50 was 18.4 µM [falling, single point].

As to `O=C(C1CCCN(S(=O)(=O)c2cccc3nonc23)C1)N1CCC(Cc2ccccc2)CC1` (stereo not given), the cell number change turned out to be 4.72%. The AC50 under setting [1] was 20.6 µM [falling, partial curve].

In the case of `Cc1nc(-c2ccc(F)cc2)c(CC(=O)N2CCN(S(=O)(=O)c3ccc(F)cc3)CC2)s1`, the cell number change was -12.4%. The AC50 under setting [1] is 29.1 µM [rising, single point].

With `Cc1cc(SCC(N)=O)nc(SCC(=O)c2ccccc2)n1`, the half-maximal activity concentration (AC50) under setting [2] was 6.51 µM [rising, partial curve, poor fit].

Regarding `Cc1noc(C)c1S(=O)(=O)N(CC(=O)NC(C)c1ccccc1)c1ccc(C(C)C)cc1` (stereo not given), the cell number change stood at 31.4%. In addition, the AC50 under setting [2] was 25.9 µM [rising, single point]. Moreover, the AC50 under setting [1] is 6.51 µM [rising, single point].

With `N=C(N)SCc1cn(-c2ccccc2)nc1-c1ccc(Br)cc1`, the cell number change was -127%.

As to `O=C(CNC(=O)c1ccco1)NCC(=O)OCc1c(F)cccc1Cl`, the cell number change is -5.45%. For the same compound, the AC50 under setting [1] was 29.1 µM [rising, single point].

`COc1cc(C)nc(N2CCCC(C(=O)Nc3cccc(Cl)c3C)C2)n1` (stereo not given): the cell number change was -4.36%.

As for `O=C(Nc1ccccc1N1CCN(c2ccccc2)CC1)c1cccc(F)c1`, the cell number change was determined as 28.3%. In addition, the half-maximal activity concentration (AC50) under setting [1] is 18.4 µM [rising, partial curve].

Source of the values: PubChem BioAssay AID2685 (National Center for Advancing Translational Sciences (NCATS), 2010).
